Here are results for 62 compounds from PubChem BioAssay AID2685 (National Center for Advancing Translational Sciences (NCATS), 2010).

This assay is described as follows: qHTS Assay for Lipid Storage Modulators in Drosophila S3 Cells.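 On cell number change: cells counted by Cell Tracker Red CMTPX staining in the red channel.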 The note with it: BODIPY lipid droplet fluorescence, 18-24 h; for cell number change: measured here: cell count max response, cells fed with added oleic acid. The essentials: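 Drosophila S3 cells got compounds at several concentrations plus oleic acid (400 uM solution). Laser-scanning cytometry with 488 nm excitation read lipid droplets at 500-530 nm and cells at 575-640 nm. Percent activity was relative to 20 uM Triacsin C.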
(Quantitative high-throughput screening tests each substance at several concentrations.)

The mark [1] stands for this setting: measured here: cell number channel AC50, cells fed with added oleic acid.
[2] abbreviates: measured here: lipid fluorescence (Fed channel) AC50, cells fed with added oleic acid.

The list shows a part of the results. These are further read-outs of the screen, such as a control signal, another cell line or another target. No call is given for them. Compounds called inactive in the main read-out are mostly missing here. The note in brackets gives the kind of curve behind each potency; many fits are weak.

By AC50 is commonly meant the concentration giving half of the maximal activity seen. Low readings indicate activity at low concentration, high ones activity only at high concentration. In the case of `CCN1CCN(C(=O)c2ccc(COc3cccc(Cl)c3)o2)CC1`, the cell number change turned out to be 1.59%. The AC50 under setting [1] is 3.66 µM [rising, partial curve, poor fit].

As for `Cc1cc(C)cc(OCCNS(=O)(=O)c2cccs2)c1`, the cell number change is 1.73%. Further, the AC50 under setting [1] is 2.91 µM [falling, single point].

On to `Cc1ccc(SCC(=O)Nc2ccc(S(N)(=O)=O)cc2)cc1`, for which the cell number change came to 9.17%. Besides, the AC50 under setting [2] is 0.58 µM [falling, single point].

As for `O=C(c1ccccc1)N1CCN=C1c1ccccc1`, the cell number change was -0.916%. Under setting [2], the AC50 is 6.51 µM [rising, single point].

In the case of `CCOc1ccc(-c2nc(S(=O)(=O)c3ccccc3)c(NC)o2)cc1`, the cell number change was -8.62%. The AC50 under setting [1] is 2.59 µM [rising, single point].

On to `CCOc1ccc(N2C(=O)C3CCCN3C2=O)cc1` (stereo not given), for which the cell number change was determined as 2.19%.

Turning to `COC(=O)c1sccc1NC(=O)CSc1nnnn1-c1ccccc1F`, the cell number change is 25.5%. Moreover, the AC50 under setting [1] was 0.092 µM [rising, full curve]. Under setting [2], the AC50 is 2.59 µM [rising, partial curve].

Turning to `O=C(CC1SC(=Nc2ccc3c(c2)OCCO3)NC1=O)Nc1ccc(F)cc1F` (stereo not given), the cell number change is -9%. Besides, the AC50 under setting [2] was 3.66 µM [falling, full curve].

As to `COc1ccc(C)cc1NS(=O)(=O)c1ccc2c(c1)oc(=O)n2C`, the cell number change was determined as 19%.

`COc1cc(C(O)P(=O)(OC(C)C)c2ccc(N(C)C)cc2)cc(OC)c1OC` (stereo not given): the cell number change was -38.1%.

Regarding `COc1cc(/C=N/Nc2ccc([N+](=O)[O-])cn2)cc(OC)c1O`, the cell number change is -9.01%. The AC50 under setting [2] was 0.058 µM [falling, full curve, poor fit].

For the compound `Cc1cc(C)c(S(=O)(=O)N2CCN(C(=O)C(C)Cn3nc(C)nc3C)CC2)c(C)c1` (stereo not given), the cell number change is -11.1%.

Regarding `CCN(C(=O)CN1C(=O)NC(c2ccccc2)(c2ccc(C)c(C)c2)C1=O)C1CCS(=O)(=O)C1` (stereo not given), the cell number change is -10.5%. Also, under setting [2], the AC50 is 29.1 µM [falling, single point].

On to `CCOc1ccc(OCC)c(NC(=O)C2CCN(S(=O)(=O)c3c(C)noc3C)CC2)c1`, for which the cell number change was -61.8%. Further, the AC50 under setting [1] is 3.66 µM [falling, full curve]. Under setting [2], the half-maximal activity concentration (AC50) is 1.84 µM [falling, full curve].

Regarding `O=c1c2ccccc2c(-c2ccccc2)nn1Cc1ccccc1`, the cell number change came out at 85.2%. Under setting [1], the AC50 is 29.1 µM [rising, single point]. Further, the AC50 under setting [2] is 29.1 µM [rising, partial curve].

Take `O=C(COc1ccc(S(=O)(=O)N2CCOCC2)cc1)NCCc1ccccc1`: the cell number change turned out to be 34%. Besides, the AC50 under setting [1] is 5.17 µM [rising, partial curve, poor fit].

Regarding `O=C(CCNC(=O)Cn1cnc2ccccc2c1=O)NCCC1=CCCCC1`, the cell number change is -38.6%. For the same compound, the AC50 under setting [1] is 23.1 µM [falling, partial curve]. Also, under setting [2], the AC50 was 13 µM [falling, partial curve, poor fit].

`Cc1cccc(NC(=O)CSc2nnc(C)c(C)n2)c1`: the cell number change stood at 10.9%.

With `CCOCCOC(=O)c1ccc(-n2cnc(C)n2)nc1`, the cell number change is -36%. Also, the AC50 under setting [1] is 29.1 µM [falling, single point].

`COc1ccc(N2CC(O)(c3ccc(OC(F)F)cc3)[N+]3=C2CCCC3)cc1` (stereo not given): the cell number change was -59.7%. Besides, the AC50 under setting [1] is 0.103 µM [falling, full curve, poor fit]. Also, the AC50 under setting [2] was 5.17 µM [falling, full curve].

Consider `O=C(NC(=S)NCc1cccnc1)c1ccccc1[N+](=O)[O-]`, for which the cell number change is -50.9%. In addition, the AC50 under setting [1] was 16.4 µM [falling, partial curve, poor fit]. Also, the AC50 under setting [2] was 18.4 µM [falling, single point].

`NC(=O)Cn1cnc2c(nnn2-c2ccc(F)cc2)c1=O`: the cell number change turned out to be 23.4%.

`O=C(Nc1ccc2c(c1)OCCO2)C1CCN(c2cnccn2)CC1`: the cell number change turned out to be 25.4%. The AC50 under setting [2] is 7.31 µM [rising, partial curve].

Consider `CCn1c(SCCC(=O)Nc2ccccc2)nnc1-c1ccc(OC)cc1`, for which the cell number change was found to be 0.397%. The AC50 under setting [2] is 29.1 µM [falling, single point].

Turning to `COC(=O)C(NS(=O)(=O)c1ccc(C)cc1)c1ccccc1` (stereo not given), the cell number change worked out at 19.7%.

Take `Cc1ccc(C(=O)n2nc(-n3cccc3)c3c(C)cc(C)nc32)cc1`: the cell number change worked out at 32.1%. The AC50 under setting [2] was 6.51 µM [falling, partial curve, poor fit].

Regarding `O=C(CNC(=O)c1ccc(F)cc1)c1ccc(Cl)cc1`, the cell number change was 9.17%.

`Cc1cc(C(=O)N/N=C(\CCC(=O)O)c2cccs2)c2ccccc2n1`: the AC50 under setting [2] is 2.06 µM [falling, partial curve].

Consider `O=C(NCc1ccco1)/C(=C/c1ccc([N+](=O)[O-])cc1)NC(=O)c1ccco1`, for which the cell number change was 10.3%. The AC50 under setting [2] is 0.116 µM [rising, single point].

In the case of `CSc1ccc(CN(C)Cc2nc3cc(C(F)(F)F)ccc3c(=O)[nH]2)cc1`, the cell number change is -9.25%.

For `COc1ccc(-c2csc3nc[nH]c(=O)c23)cc1OC`, the cell number change came out at 4.5%.

On to `Cc1cc(C(=O)NC2CCCN(Cc3ccc(Cl)cc3)C2)no1` (stereo not given), for which the cell number change was -21.8%. The AC50 under setting [2] is 29.1 µM [rising, single point].

Regarding `CC1CCCCN1CCNC(=O)c1ccc2c(c1)N(Cc1ccccc1)C(=O)c1ccccc1S2(=O)=O` (stereo not given), the AC50 under setting [2] is 1.3 µM [rising, full curve].

On to `O=C(O)c1ccc(S(=O)(=O)c2ccc([N+](=O)[O-])cc2[N+](=O)[O-])cc1`, for which the cell number change worked out at 24.8%. Moreover, the AC50 under setting [2] is 18.4 µM [rising, partial curve].

For `COc1ccc(CNC(=O)C/C(C)=N/NC(=O)COc2cccc(C)c2)cc1`, the cell number change was found to be 3.3%. The AC50 under setting [2] is 0.082 µM [falling, full curve, poor fit].

`O=C(Nc1ccccc1F)c1ccc(CSc2ccccc2)o1`: the cell number change stood at 10.9%.

In the case of `COC(=O)C1=C(C)N(Cc2ccc(OC)c(OC)c2)C(=O)C1`, the cell number change came out at 15.4%.

As for `Cc1ccc(OCC(=O)N/N=C\c2cccs2)c([N+](=O)[O-])c1`, the cell number change turned out to be 23%. Under setting [2], the AC50 was 20.6 µM [rising, single point].

On to `O=C(NCS(=O)(=O)c1ccccc1)c1ccccc1`, for which, under setting [2], the AC50 is 1.3 µM [falling, full curve].

As to `Cc1ccc(-c2cc(C(=O)NCc3cccs3)no2)cc1`, the cell number change was found to be 12.4%. Besides, the AC50 under setting [2] is 6.51 µM [rising, partial curve, poor fit].

With `Cc1cc2nc(/N=C(\N)NC(=O)N3c4ccccc4Sc4ccccc43)nc(C)c2cc1C`, the cell number change is 26.2%. Under setting [2], the AC50 is 2.06 µM [rising, partial curve].

With `Cc1cccc(-n2ncc3c(NCc4cccs4)ncnc32)c1`, the cell number change is -37.3%. Moreover, the AC50 under setting [2] was 7.31 µM [falling, partial curve, poor fit].

Turning to `CCCOc1ccccc1NC(=O)Nc1ccccc1Cl`, the cell number change was found to be 45.1%. Further, under setting [1], the AC50 is 29.1 µM [rising, single point]. The AC50 under setting [2] was 29.1 µM [rising, single point].

In the case of `COC(=O)c1ccc(CN2CCN(CC=C(C)C)C(CCO)C2)cc1` (stereo not given), the cell number change is 18.5%.

Take `Cc1cccc(NS(=O)(=O)c2ccc(C)c(NS(=O)(=O)c3cccs3)c2)c1`: the cell number change was -55.6%. Besides, under setting [1], the concentration at half-maximal activity (AC50) was 32.6 µM [falling, single point].

In the case of `COCCCN1C(=O)N(c2ccc(F)cc2)C(=O)C1CC(=O)Nc1ccc(OC)cc1` (stereo not given), the cell number change was 27.9%.

With `CCOc1ccc(S(=O)(=O)NCC2CCCO2)cc1` (stereo not given), the cell number change stood at 24.6%. Also, the AC50 under setting [2] is 18.4 µM [rising, single point].

As to `COc1cccc(-n2nnc3c(=O)n(CC(=O)Nc4cc(C)on4)cnc32)c1`, the cell number change is -9.91%. Further, the AC50 under setting [2] is 0.13 µM [falling, full curve, poor fit].

With `O=C(CSc1nnc(-c2ccccc2)n1Cc1ccco1)Nc1ccc2c(c1)OCCO2`, the cell number change is -14.7%. Besides, the AC50 under setting [2] was 0.00651 µM [falling, full curve, poor fit].

Turning to `Fc1cccc(CN(C2=NCCN2)c2c(Cl)cccc2Cl)c1`, the cell number change is -8.6%. Also, the AC50 under setting [2] was 0.731 µM [rising, single point].

Turning to `Cc1sc2nc(-c3ccccn3)[nH]c(=O)c2c1-c1ccccc1`, the cell number change is -64%. The AC50 under setting [1] was 14.6 µM [falling, partial curve, poor fit]. In addition, the half-maximal activity concentration (AC50) under setting [2] is 14.6 µM [falling, partial curve].

For the compound `Cc1cc(C2(c3ccc(O)c(C)c3)OC(=O)c3ccccc32)ccc1O`, the cell number change was -18%. In addition, under setting [2], the AC50 was 6.51 µM [rising, single point].

Turning to `COC(=O)c1nn(-c2cccc(C(F)(F)F)c2)c(=O)cc1Sc1ccccn1`, the cell number change came to 175%. Also, the AC50 under setting [2] was 29.1 µM [rising, single point].

For `Cc1ccc(NC(=O)/C(=C/c2cccc(Br)c2)NC(=O)c2ccco2)cc1`, the cell number change came to 47.9%. The AC50 under setting [1] was 2.59 µM [rising, partial curve, poor fit]. Moreover, under setting [2], the AC50 was 6.51 µM [rising, partial curve].

For the compound `O=C(N=Nc1c(O)n(Cc2ccccc2)c2ccccc12)c1ccc(O)cc1`, the cell number change came out at 5.49%.

Take `Cc1sc2nc(CN3CCCC3)nc(N3CCC(C(N)=O)CC3)c2c1C`: under setting [1], the AC50 is 0.164 µM [falling, full curve, poor fit].

On to `O=c1c2cc(NC(=S)NC3CCCCC3)ccc2nc2n1CCCCC2`, for which the AC50 under setting [1] was 6.51 µM [rising, single point].

For the compound `CCOC(=O)c1c(NC(=O)CSc2nnnn2-c2ccc3c(c2)OCCO3)sc(C)c1C`, the cell number change was 20.8%. Besides, under setting [2], the AC50 was 1.46 µM [rising, full curve].

For the compound `O=C(CN1C(=O)NC(Cc2c[nH]c3ccccc23)C1=O)NC1CCCCC1` (stereo not given), the cell number change is -0.778%. Further, the AC50 under setting [2] is 2.59 µM [rising, full curve].

On to `O=C(Cc1ccccc1)NC(NNc1ccccc1)(C(F)(F)F)C(F)(F)F`, for which the cell number change was -22.5%. In addition, the AC50 under setting [2] was 18.4 µM [falling, partial curve, poor fit].

As to `COc1cc(C(=O)NCC(=O)N/N=C/c2ccccn2)cc(OC)c1OC`, the cell number change was -60.3%. Moreover, the AC50 under setting [1] is 29.1 µM [falling, single point]. The AC50 under setting [2] was 25.9 µM [falling, partial curve].

Regarding `Cc1ccc(C)c(NC(=O)c2cc3ccccn3n2)c1`, the cell number change came to 14.7%. Moreover, the AC50 under setting [1] was 1.46 µM [rising, partial curve]. The AC50 under setting [2] was 2.59 µM [rising, partial curve].
